In the assay the target is 食蟹猴CD47-his蛋白 (Acro biosystems, cat#CD7-C52H1, MW 15.8 kDa) (cynomolgus monkey). The assay can be described thus: capture ELISA, antibody captured on anti-mouse Fcγ, biotin-labelled cynomolgus CD47 at 60 nM. On the technique in general: In an ELISA, binding on a coated surface is turned into a signal by an enzyme label.

Results are given in words; binding and its absence hold for the method and conditions named. Some results given as binding are weak or reduced against the parent protein; the word gives no strength.

B1: 抗人CD47单克隆抗体1A5 (antibody, V domains shown)
VH: EVQLQQSGAELVRSGASVTLSCTASGFNIKDYYMNWVKQRPEQGLEWIGWIGPENGDTENDPRFQGKATMTADTSSNTAFLQLSSLTSEDTAFYYCNAGGRGGFPYWGQGTLVTVST
VL: DILLTQTPLSLPVSLGDQASFSCRSSQNIVHINGKTYLEWYLQKPGQSPKLLIYRVSNRFSGVPDRFSGSGSGTDFTLKISRVEAEDLGVYYCFQGSHVPRTFGGGTKLEIK
Consider B1, for which the binding entry is “binds”.
